Data on one substance can be found in paper doi:10.1101/2022.12.20.520918.

The chains behind the UniProt entries cited, without tags or fusion partners. Where a name states a change or a piece, a line headed by the entry shows the natural chain unless it says otherwise.
UniProt Q9M1K0: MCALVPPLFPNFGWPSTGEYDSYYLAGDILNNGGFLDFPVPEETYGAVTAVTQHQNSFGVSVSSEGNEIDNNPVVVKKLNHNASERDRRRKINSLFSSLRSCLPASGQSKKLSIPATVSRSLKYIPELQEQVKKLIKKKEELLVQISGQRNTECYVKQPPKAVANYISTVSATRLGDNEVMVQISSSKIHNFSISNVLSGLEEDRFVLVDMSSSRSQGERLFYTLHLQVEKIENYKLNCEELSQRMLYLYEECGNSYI

Substitutions are numbered along the chain they refer to. No constants are given. Whether binding was seen depends on the method and setting. In cells and extracts the contact can be indirect. Binding calls can cover weak binding; strength is not graded here. Sequences can lack the tags named with a protein.

Assay [1] concerns the target T1, FER-LIKE IRON …-INDUCED …ON FACTOR fused to GFP (FIT-GFP) (Arabidopsis thaliana) (UniProt Q0V7X4).
T1 sequence: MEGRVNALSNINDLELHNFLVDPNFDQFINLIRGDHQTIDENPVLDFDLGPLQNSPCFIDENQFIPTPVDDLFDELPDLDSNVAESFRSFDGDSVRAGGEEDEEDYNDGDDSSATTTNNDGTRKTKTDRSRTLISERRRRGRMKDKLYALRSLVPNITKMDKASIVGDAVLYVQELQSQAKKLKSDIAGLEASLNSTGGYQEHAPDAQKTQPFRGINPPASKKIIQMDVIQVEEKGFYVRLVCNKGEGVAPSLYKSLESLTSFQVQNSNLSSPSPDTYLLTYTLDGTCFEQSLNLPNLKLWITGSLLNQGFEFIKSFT
Description: FRET or BRET.

Assay [2] addresses T2, FITmSS271AA fused to GFP (FITmSS271AA-GFP) (Arabidopsis thaliana) (UniProt Q0V7X4).
T2 sequence: T1 sequence with S271A, S272A
Put plainly: FRET or BRET. In general terms: Bioluminescence resonance energy transfer reports proximity on the nanometre scale.

On to “BASIC HELIX-LOOP-HELIX039 fused to mCherry (bHLH039-mCherry) (from UniProt Q9M1K0)”, for which the binding result in assay [1] and in assay [2] was “binds” throughout.
